According to patent publication US20110021746A1 (published 2011):
Numbering of substitutions follows the chain as printed. Results are given in words; binding and its absence hold for the method and conditions named. Some binding calls cover weakened binding; strength is not graded here. One block for each binder: values may come before it.

By UniProt entry, the sequences of proteins in these tests, tags left out. Where a name states a change or a piece, a line headed by the entry shows the natural chain unless it says otherwise. Chains listed by the source or under a name are the forms on record and can include a tag or linker. Residues count along the entry.
UniProt P01375, residues 77-233: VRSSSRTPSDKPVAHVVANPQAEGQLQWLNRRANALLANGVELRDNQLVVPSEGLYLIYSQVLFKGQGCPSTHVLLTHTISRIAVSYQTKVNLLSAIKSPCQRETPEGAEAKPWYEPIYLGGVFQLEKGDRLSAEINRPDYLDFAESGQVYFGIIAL
VEGF (P15692, form named): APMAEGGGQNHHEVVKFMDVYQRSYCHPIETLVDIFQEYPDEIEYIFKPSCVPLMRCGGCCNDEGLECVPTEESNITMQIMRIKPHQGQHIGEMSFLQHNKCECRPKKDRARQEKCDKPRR
UniProt P09429: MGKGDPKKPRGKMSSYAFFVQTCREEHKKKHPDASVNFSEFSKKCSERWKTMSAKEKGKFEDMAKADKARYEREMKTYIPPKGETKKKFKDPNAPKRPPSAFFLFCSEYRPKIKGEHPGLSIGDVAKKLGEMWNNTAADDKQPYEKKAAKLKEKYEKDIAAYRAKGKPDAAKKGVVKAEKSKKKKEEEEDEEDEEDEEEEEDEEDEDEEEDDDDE

What was measured:
[1] = target: T1, TNF-α (UniProt P01375 77-233, biotinylated); assay: phage ELISA
T1 construct: also called TNF-alpha; biotintylated TNF-α soluble protein (R&D Systems)

[2] = target: T1, TNF-α; assay: phage display selection and phage ELISA
[3] = target: T1, TNF-α; assay: ELISA, soluble His-tagged protein
[4] = target: VEGF (UniProt P15692); assay: phage ELISA
[5] = target: HMGB1 (UniProt P09429); assay: competition: biotinylated HMGB1 pre-incubated with R2F8, binding to immobilized RAGE
[6] = target: HMGB1 (UniProt P09429); assay: phage ELISA

- binding [1]: binds
- binding [2]: binds
- binding [3]: binds
B1: TNF-α binder R4C5 (designed binder)
chain: NVSPPRRARVTDATETTITISWNSSYCHFYGFQVDAVPANGQTPIQRTISDYEYSYTITGLQPGTDYKIYLYTLNASCYGYHYYKPVVIDAST

- binding [1]: binds
- binding [2]: binds
B2: TNF-α binder R4F7 (designed binder)
chain: NVSPPRRARVTDATETTITISWYPYEYDDCYYYIYYFQVDAVPANGQTPIQRTIPDYESYYTITGLQPGTDYKIYLYTLNSYGFCPPSYKPVVIDAST

- binding [1]: binds
- binding [2]: binds
- binding [3]: binds
B3: TNF-α binder R42C10 (designed binder)
chain: NVSPPRRARVTDATETTITISWYHHEDDCYYHFYYFQVDAVPANGQTPIQRTILHGTYTSYTITGLQPGTDYKIYLYTLNASGFCSHSYKPVVIDAST

- binding [1]: binds
- binding [2]: binds
B4: TNF-α binder R3A10 (designed binder)
chain: NVSPPRRARVTDATETTITISWYPYYYYCGYHYSYFQVDAVPANGQTPIQRTIYGYYTYYTITGLQPGTDYKIYLYTLNSSDYCYYSYYPVVIDAST

- binding [4]: binds
B5: R1D4 anti-VEGF (designed binder)
chain: NVSPPRRARVTDATETTITIPWEVAGGPIISFQVDAVPANGQTPIQRTITPDATGYTITGLQPGTDYKIYLYTLNDNARSSPVVIDAST

- binding [4]: binds
B6: R1F1 anti-VEGF (designed binder)
chain: B5 chain with E23A, V24L, A53I, T54R

- binding [1]: binds
- binding [2]: binds
B7: TNF-α binder A4A9 (designed binder)
chain: NVSPPRRARVTDATETTITISWYPYYDDCGYYISYFQVDAVPANGQTPIQRTIPDSYSSYTITGLQPGTDYKIYLYTLNDADDGHPYSKPVVIDAST

- binding [4]: binds
B8: R1G1 anti-VEGF (designed binder)
chain: NVSPPRRARVTDATETTITIRWAGSPGPVDSFQVDAVPANGQTPIQRTIQTSETGYTITGLQPGTDYKIYLYTLNDNARSSPVVIDAST

- binding [5]: binds
- binding [6]: binds
B9: R2F8 anti-HMGB1 (designed binder)
chain: NVSPPRRARVTDATETTITIRWARSASEIARFQVDAVPANGQTPIQRTIKRSANIYTITGLQPGTDYKIYLYTLNDNARSSPVVIDAST

- binding [6]: binds
B10: P2F7 anti-HMGB1 (designed binder)
chain: B9 chain with A23G, R24A, S25P, A30I, S52T, A53I, N54H, I55T

- binding [6]: binds
B11: P2F5 anti-HMGB1 (designed binder)
chain: B9 chain with A23G, R24V, S25P, A26G, E28P, I29V, A30V, S52G, N54R

- binding [6]: binds
B12: P2C6 anti-HMGB1 (designed binder)
chain: B9 chain with A23G, R24V, S25A, A26P, E28Q, I29V, A30I, A53V, N54H, I55A

- binding [1]: binds
- binding [2]: binds
- binding [3]: binds
B13: TNF-α binder R41A6 (designed binder)
chain: NVSPPRRARVTDATETTITISWEHSEDDCYSYIYYFQVDAVPANGQTPIQRTISGYETYYTITGLQPGTDYKIYLYTLNSAGFCPPYSKPVVIDAST
notes: 14FN3 variant; for the Octet expressed from pET-20b with pelB signal and C-terminal hexahistidine tag; also called TNF A6

- binding [1]: binds
- binding [2]: binds
B14: TNF-α binder R4G4 (designed binder)
chain: B13 chain with H24P, D27Y, S31Y, Y32S, S54H, G55D, Y56S, E57Y, T58N

- binding [1]: binds
- binding [2]: binds
B15: TNF-α binder R4A8 (designed binder)
chain: B13 chain with E23Y, H24P, D28Y, Y30G, Y32S, Y35G, S54H, Y56N, Y59S

- binding [1]: binds
- binding [2]: binds
B16: TNF-α binder R4E9 (designed binder)
chain: NVSPPRRARVTDATETTITISWESYYYDCCYYIYYFQVDAVPANGQTPIQRTIYYPYTSYTITGLQPGTDYKIYLYTLNSYGYGYHYYKPVVIDAST
